The record followed here is publication PMC12845422, “Characterization of a Novel Family of Contilisant + Belinostat Multitarget Small Molecules in Glioblastoma” (Pharmaceuticals, 2025).

The data set deals with GNS166 cells. Kind of data set: RNAseq profiling. As to conditions: 5 µM, fold-change cutoff > 4, p-value < 0.01. Type of data set: cell-based.

On to `O=C(/C=C/c1cccc(S(=O)(=O)n2ccc3cc(OCCCN4CCCCC4)ccc32)c1)NO` [MTP150], for which the “downregulated genes (RNAseq)” value worked out at 209 and the “upregulated genes (RNAseq)” value is listed as 2205.
